Reference: the supplement of paper PMC12067093, “Discovery and optimisation of a covalent ligand for TRIM25 and its application to targeted protein ubiquitination” (Chemical Science, 2025)
The list shows a part of the results.

Chains of the proteins cited; added tags and fusions are not shown. Lines headed by an entry give the natural chain unless they say otherwise; changes in a name come on top.
UniProt A2RUS2: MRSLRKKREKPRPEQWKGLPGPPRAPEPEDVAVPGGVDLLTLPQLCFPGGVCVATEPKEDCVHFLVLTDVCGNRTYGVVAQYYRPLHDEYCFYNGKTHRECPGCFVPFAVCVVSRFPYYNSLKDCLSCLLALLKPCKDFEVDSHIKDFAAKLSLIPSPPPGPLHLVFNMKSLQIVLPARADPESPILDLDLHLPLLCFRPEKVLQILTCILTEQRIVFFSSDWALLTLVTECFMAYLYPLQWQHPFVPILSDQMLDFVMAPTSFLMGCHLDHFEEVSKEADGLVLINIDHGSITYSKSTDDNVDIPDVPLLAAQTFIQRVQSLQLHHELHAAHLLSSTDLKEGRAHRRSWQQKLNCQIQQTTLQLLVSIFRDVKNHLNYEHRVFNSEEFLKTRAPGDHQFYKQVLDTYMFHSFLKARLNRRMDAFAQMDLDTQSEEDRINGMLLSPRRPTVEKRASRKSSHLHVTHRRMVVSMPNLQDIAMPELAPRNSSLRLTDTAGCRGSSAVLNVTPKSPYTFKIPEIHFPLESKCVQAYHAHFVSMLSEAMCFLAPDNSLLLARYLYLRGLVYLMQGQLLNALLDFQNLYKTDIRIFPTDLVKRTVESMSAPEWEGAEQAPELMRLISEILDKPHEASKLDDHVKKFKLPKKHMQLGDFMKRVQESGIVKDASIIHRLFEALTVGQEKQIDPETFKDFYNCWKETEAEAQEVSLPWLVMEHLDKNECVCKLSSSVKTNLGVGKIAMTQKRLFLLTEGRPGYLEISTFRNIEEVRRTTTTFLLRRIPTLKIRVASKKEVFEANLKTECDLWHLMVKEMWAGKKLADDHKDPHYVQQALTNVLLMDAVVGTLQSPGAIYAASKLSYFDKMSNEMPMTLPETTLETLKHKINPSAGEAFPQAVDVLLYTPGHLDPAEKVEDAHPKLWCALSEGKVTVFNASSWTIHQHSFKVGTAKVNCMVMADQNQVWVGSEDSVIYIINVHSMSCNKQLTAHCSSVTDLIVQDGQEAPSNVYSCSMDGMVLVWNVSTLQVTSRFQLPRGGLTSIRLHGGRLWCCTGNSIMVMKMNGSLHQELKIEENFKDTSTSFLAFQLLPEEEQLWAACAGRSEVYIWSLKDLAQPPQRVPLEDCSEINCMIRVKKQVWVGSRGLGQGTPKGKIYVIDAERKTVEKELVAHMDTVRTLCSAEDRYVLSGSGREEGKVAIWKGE
UniProt Q5VZ89: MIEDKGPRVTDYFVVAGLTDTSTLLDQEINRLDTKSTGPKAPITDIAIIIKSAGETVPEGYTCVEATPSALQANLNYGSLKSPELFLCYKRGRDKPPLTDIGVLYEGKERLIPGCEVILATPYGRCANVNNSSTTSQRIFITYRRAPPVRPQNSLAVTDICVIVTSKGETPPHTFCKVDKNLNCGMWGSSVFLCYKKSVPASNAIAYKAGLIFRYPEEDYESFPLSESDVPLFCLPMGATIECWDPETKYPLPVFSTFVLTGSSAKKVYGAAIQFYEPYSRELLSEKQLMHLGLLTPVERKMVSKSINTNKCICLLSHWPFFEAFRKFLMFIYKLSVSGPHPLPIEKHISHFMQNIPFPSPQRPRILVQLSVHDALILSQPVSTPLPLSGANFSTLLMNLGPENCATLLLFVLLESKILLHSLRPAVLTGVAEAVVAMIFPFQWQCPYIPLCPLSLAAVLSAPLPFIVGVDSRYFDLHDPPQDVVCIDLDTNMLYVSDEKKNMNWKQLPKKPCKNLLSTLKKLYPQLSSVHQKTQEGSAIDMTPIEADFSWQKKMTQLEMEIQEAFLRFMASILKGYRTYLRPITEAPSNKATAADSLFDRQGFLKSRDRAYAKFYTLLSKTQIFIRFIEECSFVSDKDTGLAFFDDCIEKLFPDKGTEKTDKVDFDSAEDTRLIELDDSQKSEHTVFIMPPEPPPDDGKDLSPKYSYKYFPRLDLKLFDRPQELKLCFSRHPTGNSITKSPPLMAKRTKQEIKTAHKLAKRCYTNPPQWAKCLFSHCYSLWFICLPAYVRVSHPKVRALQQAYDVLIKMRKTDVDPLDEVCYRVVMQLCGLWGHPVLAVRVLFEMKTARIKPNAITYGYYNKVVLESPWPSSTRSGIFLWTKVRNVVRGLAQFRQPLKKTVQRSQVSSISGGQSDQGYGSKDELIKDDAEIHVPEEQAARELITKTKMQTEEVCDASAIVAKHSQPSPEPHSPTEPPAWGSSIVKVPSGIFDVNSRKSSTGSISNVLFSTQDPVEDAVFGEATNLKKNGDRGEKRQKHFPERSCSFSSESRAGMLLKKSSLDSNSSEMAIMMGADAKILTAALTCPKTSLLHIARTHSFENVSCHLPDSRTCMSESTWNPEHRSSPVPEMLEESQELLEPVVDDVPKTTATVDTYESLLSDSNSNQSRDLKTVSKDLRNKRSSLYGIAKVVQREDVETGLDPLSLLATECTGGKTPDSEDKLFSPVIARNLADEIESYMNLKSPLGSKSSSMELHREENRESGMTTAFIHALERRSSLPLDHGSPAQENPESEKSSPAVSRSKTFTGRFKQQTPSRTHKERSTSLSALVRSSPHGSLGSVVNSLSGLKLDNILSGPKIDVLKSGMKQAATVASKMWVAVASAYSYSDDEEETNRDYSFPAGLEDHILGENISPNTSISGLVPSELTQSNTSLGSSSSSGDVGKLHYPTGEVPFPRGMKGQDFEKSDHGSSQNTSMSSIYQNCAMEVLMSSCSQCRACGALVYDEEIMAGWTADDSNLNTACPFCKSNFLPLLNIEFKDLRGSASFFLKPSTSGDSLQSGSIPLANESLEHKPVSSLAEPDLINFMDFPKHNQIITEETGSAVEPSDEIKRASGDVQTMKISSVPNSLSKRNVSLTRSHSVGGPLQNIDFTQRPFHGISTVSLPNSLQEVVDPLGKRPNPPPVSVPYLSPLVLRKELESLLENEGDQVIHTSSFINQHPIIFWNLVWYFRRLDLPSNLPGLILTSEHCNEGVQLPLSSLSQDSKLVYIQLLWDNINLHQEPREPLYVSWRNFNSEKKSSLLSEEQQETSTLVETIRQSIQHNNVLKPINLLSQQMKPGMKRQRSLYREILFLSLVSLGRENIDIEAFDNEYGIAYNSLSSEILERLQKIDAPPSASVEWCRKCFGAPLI
UniProt Q7L014: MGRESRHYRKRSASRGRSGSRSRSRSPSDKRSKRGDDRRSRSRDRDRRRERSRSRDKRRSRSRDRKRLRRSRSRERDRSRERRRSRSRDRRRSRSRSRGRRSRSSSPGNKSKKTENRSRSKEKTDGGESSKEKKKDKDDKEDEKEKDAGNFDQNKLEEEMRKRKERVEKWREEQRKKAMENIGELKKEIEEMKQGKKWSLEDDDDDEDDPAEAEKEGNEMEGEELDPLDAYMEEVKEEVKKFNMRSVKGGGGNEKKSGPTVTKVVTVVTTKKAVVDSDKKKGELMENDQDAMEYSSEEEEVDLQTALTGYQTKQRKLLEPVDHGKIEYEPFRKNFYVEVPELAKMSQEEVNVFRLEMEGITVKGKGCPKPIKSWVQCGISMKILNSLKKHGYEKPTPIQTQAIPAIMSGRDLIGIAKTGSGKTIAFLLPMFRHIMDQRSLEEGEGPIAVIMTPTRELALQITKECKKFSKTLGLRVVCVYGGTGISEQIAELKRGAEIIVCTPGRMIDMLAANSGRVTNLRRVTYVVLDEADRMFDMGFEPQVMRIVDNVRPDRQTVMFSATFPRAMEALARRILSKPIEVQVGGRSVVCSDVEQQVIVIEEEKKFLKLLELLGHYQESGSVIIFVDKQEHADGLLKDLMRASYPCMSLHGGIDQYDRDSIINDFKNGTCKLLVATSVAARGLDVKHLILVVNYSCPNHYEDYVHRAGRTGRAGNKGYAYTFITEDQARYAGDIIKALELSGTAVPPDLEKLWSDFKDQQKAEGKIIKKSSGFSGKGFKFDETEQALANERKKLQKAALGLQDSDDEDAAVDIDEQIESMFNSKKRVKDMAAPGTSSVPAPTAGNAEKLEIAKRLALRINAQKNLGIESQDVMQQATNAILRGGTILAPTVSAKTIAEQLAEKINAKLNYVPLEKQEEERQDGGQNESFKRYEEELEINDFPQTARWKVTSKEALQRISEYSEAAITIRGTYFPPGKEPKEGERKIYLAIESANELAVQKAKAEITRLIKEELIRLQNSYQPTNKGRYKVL
UniProt Q92499: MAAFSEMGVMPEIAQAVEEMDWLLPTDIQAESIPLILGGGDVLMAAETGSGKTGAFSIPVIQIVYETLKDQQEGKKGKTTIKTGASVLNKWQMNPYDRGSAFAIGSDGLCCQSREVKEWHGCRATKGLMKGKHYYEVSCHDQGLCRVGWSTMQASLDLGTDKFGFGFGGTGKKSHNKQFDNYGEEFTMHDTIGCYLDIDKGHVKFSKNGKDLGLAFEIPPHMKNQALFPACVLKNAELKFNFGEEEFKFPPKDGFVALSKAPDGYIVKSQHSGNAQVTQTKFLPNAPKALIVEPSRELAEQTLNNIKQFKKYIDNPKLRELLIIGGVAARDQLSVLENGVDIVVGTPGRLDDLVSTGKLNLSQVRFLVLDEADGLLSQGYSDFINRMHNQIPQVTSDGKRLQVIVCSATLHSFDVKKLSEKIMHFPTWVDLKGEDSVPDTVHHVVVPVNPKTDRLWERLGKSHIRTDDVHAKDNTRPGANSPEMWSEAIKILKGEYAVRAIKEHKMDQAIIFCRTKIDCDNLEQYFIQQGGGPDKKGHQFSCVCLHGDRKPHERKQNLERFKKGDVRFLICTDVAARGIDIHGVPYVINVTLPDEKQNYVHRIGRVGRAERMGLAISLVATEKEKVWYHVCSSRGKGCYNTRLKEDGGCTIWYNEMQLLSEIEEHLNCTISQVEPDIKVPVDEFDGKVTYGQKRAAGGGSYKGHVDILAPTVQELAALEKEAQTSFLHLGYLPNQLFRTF
UniProt Q8N8A6: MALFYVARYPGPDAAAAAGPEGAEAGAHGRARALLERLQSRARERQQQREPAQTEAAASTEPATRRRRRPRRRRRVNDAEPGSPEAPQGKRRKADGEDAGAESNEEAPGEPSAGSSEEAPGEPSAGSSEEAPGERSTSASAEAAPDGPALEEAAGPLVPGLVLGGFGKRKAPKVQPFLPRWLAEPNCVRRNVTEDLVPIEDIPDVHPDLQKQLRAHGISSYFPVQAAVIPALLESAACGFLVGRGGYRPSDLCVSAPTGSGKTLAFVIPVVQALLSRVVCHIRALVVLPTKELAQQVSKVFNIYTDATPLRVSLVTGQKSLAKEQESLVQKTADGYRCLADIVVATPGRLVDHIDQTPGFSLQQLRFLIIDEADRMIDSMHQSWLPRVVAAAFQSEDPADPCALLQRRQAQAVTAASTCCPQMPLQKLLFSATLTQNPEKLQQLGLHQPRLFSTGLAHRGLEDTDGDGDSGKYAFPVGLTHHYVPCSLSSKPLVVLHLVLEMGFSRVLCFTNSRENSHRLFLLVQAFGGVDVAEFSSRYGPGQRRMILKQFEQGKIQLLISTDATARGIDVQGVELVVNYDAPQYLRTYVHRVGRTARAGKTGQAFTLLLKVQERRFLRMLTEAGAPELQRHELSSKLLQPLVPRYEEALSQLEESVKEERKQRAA
UniProt Q9H8H2: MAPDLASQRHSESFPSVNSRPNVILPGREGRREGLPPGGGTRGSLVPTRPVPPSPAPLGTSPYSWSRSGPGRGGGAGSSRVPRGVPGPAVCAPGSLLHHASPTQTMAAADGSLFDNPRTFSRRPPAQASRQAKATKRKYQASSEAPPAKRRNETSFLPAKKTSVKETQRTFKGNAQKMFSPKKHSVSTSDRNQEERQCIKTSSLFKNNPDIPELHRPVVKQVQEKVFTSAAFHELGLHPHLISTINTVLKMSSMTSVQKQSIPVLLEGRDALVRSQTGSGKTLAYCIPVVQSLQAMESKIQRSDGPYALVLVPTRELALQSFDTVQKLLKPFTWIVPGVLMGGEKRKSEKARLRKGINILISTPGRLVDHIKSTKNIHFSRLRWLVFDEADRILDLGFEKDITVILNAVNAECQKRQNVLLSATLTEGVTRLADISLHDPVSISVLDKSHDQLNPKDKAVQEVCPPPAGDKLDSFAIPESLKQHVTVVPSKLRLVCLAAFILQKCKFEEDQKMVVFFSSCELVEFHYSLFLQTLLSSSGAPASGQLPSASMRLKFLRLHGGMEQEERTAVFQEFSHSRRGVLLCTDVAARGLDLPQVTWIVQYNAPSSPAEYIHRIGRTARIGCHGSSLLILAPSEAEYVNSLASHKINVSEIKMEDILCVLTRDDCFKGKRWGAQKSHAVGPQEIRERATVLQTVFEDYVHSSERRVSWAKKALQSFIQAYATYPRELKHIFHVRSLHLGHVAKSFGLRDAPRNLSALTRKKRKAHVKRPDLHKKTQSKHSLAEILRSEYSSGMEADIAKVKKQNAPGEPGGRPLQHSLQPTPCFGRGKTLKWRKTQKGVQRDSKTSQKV

Compound: CC1Cc2ccccc2N1C(=O)C1CCCN(C1)C(=O)CCl (mixture of isomers) [TRIM25 ligand 11 (diastereomer mixture)]
Experiment: probe-labelled cysteine peptide fold change vs DMSO (competition) (log2 fold change); higher = less target engagement (more negative = stronger competition)
Conditions: THP-1, incubation time: 4 h
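Further: competitive chemoproteomic profiling in live THP-1 cells with an iodoacetamide desthiobiotin (IA-DTB) probe, comparing probe-labelled peptide intensities in compound-treated cells against DMSO-treated controls.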

| Target | probe-labelled cysteine peptide fold change (10 µM) | probe-labelled cysteine peptide fold change (50 µM) |
| --- | --- | --- |
| DELE1_Q14154_286_AQYNAGLCHEHGR (UniProt Q14154) | 0.399 | 0.367 |
| DDX39A_O00148_299_CMALAQLLVEQNFPAIAIHR (UniProt O00148) | -0.153 | 0.0933 |
| DCUN1D1_Q96GG9_115_AATQCEFSK (UniProt Q96GG9) | 0.0579 | 0.181 |
| DENND3_A2RUS2_128_DCLSCLLALLK (UniProt A2RUS2) | -0.0517 | 0.242 |
| DDX6_P26196_361_ISQLGYSCFYIHAK (UniProt P26196) | 0.0377 | 0.268 |
| DENND4C_Q5VZ89_955_MQTEEVCDASAIVAK (UniProt Q5VZ89) | 0.0406 | -0.139 |
| DDX42_Q86XP3_339+346_ELCQQIHAECK (UniProt Q86XP3) | -0.0625 | -0.045 |
| DDX24_Q9GZR7_599_SLVFANSISCIK (UniProt Q9GZR7) | 0.479 | 0.567 |
| DDX23_Q9BUQ8_692_MGYNACTLHGGK (UniProt Q9BUQ8) | -0.0642 | -0.0335 |
| DDX17_Q92841_584_TTSSANNPNLMYQDECDRR (UniProt Q92841) | 0.144 | 0.00204 |
| DDB1_Q16531_128_PSETGIIGIIDPECR (UniProt Q16531) | -0.189 | 0.032 |
| DDAH2_O95865_11_CSHALIR (UniProt O95865) | 0.0956 | -0.0505 |
| DDX58_O95786_869_QNCSHDWGIHVK (UniProt O95786) | -0.117 | -0.055 |
| DDX46_Q7L014_501_RGAEIIVCTPGR (UniProt Q7L014) | 0.161 | 0.296 |
| DENND4C_Q5VZ89_1113_TCMSESTWNPEHR (UniProt Q5VZ89) | 0.116 | 0.024 |
| DDX59_Q5T1V6_414_NLPCANVR (UniProt Q5T1V6) | 0.0475 | 0.054 |
| DDX39B_Q13838_198_HFILDECDK (UniProt Q13838) | -0.0282 | 0.027 |
| DGKE_P52429_177_CDFGEFK (UniProt P52429) | -0.0497 | 0.0324 |
| DENND3_A2RUS2_61+71_EDCVHFLVLTDVCGNR (UniProt A2RUS2) | 0.141 | -0.498 |

| Target | probe-labelled cysteine peptide fold change (10 µM) | probe-labelled cysteine peptide fold change (50 µM) |
| --- | --- | --- |
| DEF6_Q9H4E7_266_RGIIPLDAHCCVEVLPDRDGK (UniProt Q9H4E7) | 0.117 | 0.347 |
| DDX19A_Q9NUU7_166_YPQCLCLSPTYELALQTGK (UniProt Q9NUU7) | 0.107 | 0.359 |
| DDX17_Q92841_166_GGDVCPKPVFAFHHANFPQYVMDVLMDQHFTEPTPIQCQGFPLALSGR (UniProt Q92841) | -0.298 | -0.323 |
| DENND6A_Q8IWF6_130_VSLHCLLDQFDK (UniProt Q8IWF6) | 0.3 | -0.162 |
| DENND4C_Q5VZ89_1211_EDVETGLDPLSLLATECTGGK (UniProt Q5VZ89) | 0.0495 | -0.339 |
| DDX17_Q92841_199_PVFAFHHANFPQYVMDVLMDQHFTEPTPIQCQGFPLALSGR (UniProt Q92841) | -0.00752 | 0.0351 |
| DDX1_Q92499_231_NQALFPACVLK (UniProt Q92499) | -0.0868 | -0.048 |
| DDX17_Q92841_199_GGDVCPKPVFAFHHANFPQYVMDVLMDQHFTEPTPIQCQGFPLALSGR (UniProt Q92841) | -0.173 | -0.356 |
| DDX51_Q8N8A6_187_WLAEPNCVR (UniProt Q8N8A6) | -0.0896 | -0.0751 |
| DDX3X_O00571_468_GADSLEDFLYHEGYACTSIHGDR (UniProt O00571) | 0.146 | -0.196 |
| DECR1_Q16698_116_VHAIQCDVRDPDMVQNTVSELIK (UniProt Q16698) | 0.00711 | 0.0301 |
| DDX31_Q9H8H2_584_GVLLCTDVAAR (UniProt Q9H8H2) | 0.0295 | 0.0689 |
| DDX54_Q8TDD1_73_LGPGRPLPTFPTSECTSDVEPDTR (UniProt Q8TDD1) | 0.0359 | -0.218 |
| DGKZ_Q13574_1063_TICHYIVEAGASLMK (UniProt Q13574) | -0.0699 | -0.0525 |
| DENND4C_Q5VZ89_88_SPELFLCYK (UniProt Q5VZ89) | 0.0326 | 0.0835 |
| DDX18_Q9NVP1_329_NLQCLVIDEADR (UniProt Q9NVP1) | 0.112 | 0.178 |
| DDX60L_Q5H9U9_615_KLEDYLTSCASNSVK (UniProt Q5H9U9) | -0.0574 | 0.0613 |
| DDX31_Q9H8H2_413_DITVILNAVNAECQK (UniProt Q9H8H2) | 0.101 | 0.158 |
| DDX1_Q92499_544_GHQFSCVCLHGDR (UniProt Q92499) | 0.0969 | 0.153 |
